In PubChem BioAssay AID330 (DTP/NCI, 2004):
The list is a part of this screen's results and no random one: it is rich in T/C values a quarter to a half above the control, in often repeated tests (any T/C) and in doses without a T/C. Further doses and runs are listed elsewhere. T/C is the treated group as % of the vehicle group. Some entries give survivors of the animals treated and no T/C: the source files T/C as zero there, which appears to mark a toxic dose or a test without result, not a measured value. Some survivor counts are full or nearly so, which does not show that the dose was tolerated: survival well below the control is almost never listed, so the zero probably covers shortened survival too. Survivors were counted at the toxicity check, usually on the fifth day, unless a day is given; later deaths do not show. Schedule codes are those of the source, read here as Q, the interval in days (D) or hours (H), X, the number of doses. For survival time, the PubChem record calls one and a half times the control and up active, and a quarter to a half above the control has no call in these data; cut-offs in other NCI protocols can differ. Counts like (3×) stand for listed records that agree. Some entries hold several experiments; the values are given in rising order. Some T/C values carry the count of animals alive at the toxicity check (mostly the fifth day); without a count, all were alive then.

System: P388 leukemia ip, CD2F1 mice, survival T/C
Test: NCI In Vivo Anticancer Drug Screen. Data for tumor model P388 Leukemia (intraperitoneal) in CD2F1 (CDF1) mice
Conditions: T/C endpoint: median survival time, higher T/C = longer survival
[1] = dose: 100.0 mg/kg/injection, schedule: Q01DX005 (ip), vehicle: saline
[2] = dose: 200.0 mg/kg/injection, schedule: Q01DX005 (ip), vehicle: saline
[3] = dose: 50.0 mg/kg/injection, schedule: Q01DX005 (ip), vehicle: saline with Tween-80
[4] = dose: 100.0 mg/kg/injection, schedule: Q01DX005 (ip), vehicle: saline with Tween-80
[5] = dose: 200.0 mg/kg/injection, schedule: Q01DX005 (ip), vehicle: saline with Tween-80
[6] = dose: 60.0 mg/kg/injection, schedule: Q01DX005 (ip), vehicle: Klucel (hydroxypropylcellulose) (HPC)
[7] = dose: 240.0 mg/kg/injection, schedule: Q01DX005 (ip), vehicle: Klucel (hydroxypropylcellulose) (HPC)
[8] = dose: 120.0 mg/kg/injection, schedule: Q01DX005 (ip), vehicle: Klucel (hydroxypropylcellulose) (HPC)
[9] = dose: 25.0 mg/kg/injection, schedule: Q01DX009 (ip), vehicle: saline with Tween-80
[10] = dose: 50.0 mg/kg/injection, schedule: Q01DX009 (ip), vehicle: saline with Tween-80
[11] = dose: 200.0 mg/kg/injection, schedule: Q01DX009 (ip), vehicle: saline with Tween-80
[12] = dose: 100.0 mg/kg/injection, schedule: Q01DX009 (ip), vehicle: saline
[13] = dose: 12.5 mg/kg/injection, schedule: Q01DX005 (ip), vehicle: saline

In the case of `COc1nc(NC2OC(CO)C(O)C(O)C2O)c(C(=O)CCl)c(=O)n1C` (stereo not drawn), the survivor count (dose: 60.0 mg/kg/injection, schedule: Q01DX005 (ip), vehicle: saline with Tween-80) is reported as 6 of 6.

For `COC1=C2C[C@@H](C)C[C@@H](OC)[C@@H](O)[C@H](C)/C=C(\C)[C@@H](OC(N)=O)[C@H](OC)/C=C\C=C(/C)C(=O)NC(=CC1=O)C2=O`, the survivor count (dose: 3.0 mg/kg/injection, schedule: Q01DX009 (ip), vehicle: saline with Tween-80) was 6 of 6.

In the case of `CC1OCN2CCCCC12` (stereo not drawn), the T/C [1] is reported as 127 and 131 % of control and the T/C [2] is reported as 133 and 139 % of control.

`O=C(CCCCCCC(=O)ON1C(=O)CCC1=O)ON1C(=O)CCC1=O` was tested, and the T/C [3] was 128 % of control, the T/C [4] was 130 % of control (2×) and the T/C [5] was 125 and 135 % of control. The survivor count (dose: 400.0 mg/kg/injection, schedule: Q01DX005 (ip), vehicle: saline with Tween-80) was 4 of 5.

`CCC(C)/C(=C\C#N)NCCCN/C(=C/C#N)C(C)CC` (stereo not drawn) was tested, and the survivor count (dose: 30.0 mg/kg/injection, schedule: Q01DX005 (ip), vehicle: Klucel + Tween-80) was 6 of 6, the survivor count [6] was 6 of 6 and the survivor count [7] was 6 of 6.

In the case of `CC(C)c1cc(C(=O)[O-])c(O)c(C(C)C)c1.CC(C)c1cc(C(=O)[O-])c(O)c(C(C)C)c1.CC1OC(O[C@H]2/C=C/C=C/C=C/C=C/C=C/C=C/C=C/C(C)[C@@H](O)C(C)C(C)OC(=O)C[C@H](O)C[C@H](O)CC[C@@H](O)[C@H](O)C[C@H](O)C[C@]3(O)CC(O)[C@@H](C(=O)O)[C@H](C2)O3)C(O)C(N)C1O.[Cu+2]` (stereo partly drawn), the survivor count (dose: 100.0 mg/kg/injection, schedule: Q04DX002 (ip), vehicle: saline with Tween-80) is reported as 3 of 6, the survivor count (dose: 200.0 mg/kg/injection, schedule: Q04DX002 (ip), vehicle: saline with Tween-80) is reported as 1 of 6 and the survivor count (dose: 400.0 mg/kg/injection, schedule: Q04DX002 (ip), vehicle: saline with Tween-80) is reported as 0 of 6.

In the case of `CCC[As](CCC)SC1OC(COC(C)=O)C(OC(C)=O)C(OC(C)=O)C1OC(C)=O` (stereo not drawn), the survivor count (dose: 400.0 mg/kg/injection, schedule: Q01DX009 (ip), vehicle: saline with Tween-80) is reported as 0 of 6.

`O=C(Nc1ccc(C(=O)c2ccccc2)cc1)Nc1ccc(Cl)c(Cl)c1` was tested, and the survivor count [6] was 6 of 6 and the survivor count [8] was 5 of 6.

`CC[N+](C)(CC)CC(C)C1NS(=O)(=O)c2ccccc21` (stereo not drawn) was tested, and the survivor count (dose: 200.0 mg/kg/injection, schedule: Q04DX003 (ip), vehicle: saline) was 6 of 6 and the survivor count (dose: 400.0 mg/kg/injection, schedule: Q04DX003 (ip), vehicle: saline) was 0 of 6.

For `C=C1C(=O)O[C@@H]2C[C@@H](C)[C@@H]3C=CC(=O)[C@@]3(C)[C@@H](OC(=O)CCCC(=O)O[C@H]3[C@@H]4C(=C)C(=O)O[C@@H]4C[C@@H](C)[C@@H]4C=CC(=O)[C@]43C)[C@H]12`, the survivor count (dose: 6.25 mg/kg/injection, schedule: Q01DX005 (ip), vehicle: Klucel (hydroxypropylcellulose) (HPC)) was 3 of 6, the survivor count (dose: 12.5 mg/kg/injection, schedule: Q01DX005 (ip), vehicle: Klucel (hydroxypropylcellulose) (HPC)) was 0 of 6 and the survivor count (dose: 25.0 mg/kg/injection, schedule: Q01DX005 (ip), vehicle: Klucel (hydroxypropylcellulose) (HPC)) was 0 of 6.

`Cc1cc(=NO)cc(C)n1O` was tested, and the T/C (dose: 100.0 mg/kg/injection, schedule: Q01DX005 (ip), vehicle: distilled water + alcohol) was 125 % of control, the T/C (dose: 200.0 mg/kg/injection, schedule: Q01DX005 (ip), vehicle: distilled water + alcohol) was 127 and 131 % of control and the T/C (dose: 400.0 mg/kg/injection, schedule: Q01DX005 (ip), vehicle: distilled water + alcohol) was 136 % of control.

`C[C@]12CC[C@H](O)C[C@@H]1CC[C@@H]1[C@@H]2C(=O)C[C@]2(C)C3=CC(=O)O[C@H]3C[C@@H]12` was tested, and the survivor count (dose: 200.0 mg/kg/injection, schedule: Q04DX003 (ip), vehicle: saline with Tween-80) was 5 of 6 and the survivor count (dose: 400.0 mg/kg/injection, schedule: Q04DX003 (ip), vehicle: saline with Tween-80) was 0 of 6.

`ONc1ncnc2nc[nH]c12` was tested, and the T/C (dose: 25.0 mg/kg/injection, schedule: Q04DX003 (ip), vehicle: saline sonified) was 125 % of control, the T/C (dose: 33.0 mg/kg/injection, schedule: Q04DX003 (ip), vehicle: saline with Tween-80) was 127 % of control and the T/C (dose: 50.0 mg/kg/injection, schedule: Q04DX003 (ip), vehicle: saline sonified) was 141 % of control. For the same molecule, the T/C (dose: 75.0 mg/kg/injection, schedule: Q04DX003 (ip), vehicle: saline with Tween-80) was 127 % of control and the T/C (dose: 100.0 mg/kg/injection, schedule: Q04DX003 (ip), vehicle: saline sonified) was 133 % of control.

For `S=C1CC2CCCC(C2)N1` (stereo not drawn), the survivor count (dose: 15.0 mg/kg/injection, schedule: Q01DX005 (ip), vehicle: Klucel (hydroxypropylcellulose) (HPC)) was 6 of 6, the survivor count (dose: 30.0 mg/kg/injection, schedule: Q01DX005 (ip), vehicle: Klucel (hydroxypropylcellulose) (HPC)) was 0 of 6 and the survivor count [6] was 0 of 6. For the same molecule, the survivor count [8] was 0 of 6 and the survivor count [7] was 0 of 6.

For `CC(C)(C)c1ccc2c(cc[n+]3ccccc23)c1`, the survivor count [3] was 0 of 5, the survivor count [4] was 0 of 5 and the survivor count [5] was 0 of 5.

`Cc1ccc(NCCNCCO)c2c(=O)c3cc(O)ccc3sc12` was tested, and the T/C (dose: 3.12 mg/kg/injection, schedule: Q01DX009 (ip), vehicle: saline with Tween-80) was 127 % of control, the T/C (dose: 6.25 mg/kg/injection, schedule: Q01DX009 (ip), vehicle: saline with Tween-80) was 132 % of control and the survivor count [9] was 4 of 6. The survivor count [10] was 5 of 6, the survivor count (dose: 100.0 mg/kg/injection, schedule: Q01DX009 (ip), vehicle: saline with Tween-80) was 0 of 6 and the survivor count [11] was 0 of 6.

With `CN(C)CCNc1ccc([N+](=O)[O-])c2sc3ccccc3c(=O)c12` the T/C [9] was 135 % of control, the T/C [10] was 136 and 143 % of control and the survivor count [11] was 6 of 6.

For `NC(=O)C1CNCC(C(N)=O)C1` (stereo not drawn), the survivor count [12] was 0 of 6 and the survivor count (dose: 200.0 mg/kg/injection, schedule: Q01DX009 (ip), vehicle: saline) was 0 of 6.

With `CC1(C)N=C(N)N=C(N)N1c1cccc(OCCOc2ccc([N+](=O)[O-])cc2)c1` the T/C (dose: 66.0 mg/kg/injection, schedule: Q01DX009 (ip), vehicle: saline) was 127 % of control, the T/C [12] was 127 % of control and the T/C (dose: 150.0 mg/kg/injection, schedule: Q01DX009 (ip), vehicle: saline) was 127 % of control.

In the case of `O=C(O)c1c(Cl)c(Cl)c(Cl)c(Cl)c1-c1c2cc(Br)c(=O)c(Br)c-2oc2c(Br)c(O)c(Br)cc12`, the survivor count [5] is reported as 2 of 5.

With `C[CH2][Sn]1([CH2]C)[O]S(=O)(=O)[O]1` the T/C (dose: 3.12 mg/kg/injection, schedule: Q01DX005 (ip), vehicle: saline, evaluated on day 20) was 125 % of control [5 of 6 alive], the T/C (dose: 3.12 mg/kg/injection, schedule: Q01DX005 (ip), vehicle: saline, evaluated on day 30) was 129 % of control and the T/C (dose: 6.25 mg/kg/injection, schedule: Q01DX005 (ip), vehicle: saline, evaluated on day 20) was 128 % of control. For the same molecule, the T/C (dose: 6.25 mg/kg/injection, schedule: Q01DX005 (ip), vehicle: saline, evaluated on day 30) was 130 % of control, the T/C [13] was 132 % of control and the survivor count [13] was 4 of 6. The survivor count (dose: 50.0 mg/kg/injection, schedule: Q01DX005 (ip), vehicle: saline) was 0 of 6, the survivor count [1] was 0 of 6 and the survivor count [2] was 0 of 6.

`O=[N+]([O-])c1cnc(Sc2ncccn2)c([N+](=O)[O-])c1` was tested, and the survivor count (dose: 25.0 mg/kg/injection, schedule: Q01DX009 (ip), vehicle: saline) was 3 of 6, the T/C (dose: 25.0 mg/kg/injection, schedule: Q01DX009 (ip), vehicle: suspension in saline) was 141 % of control and the survivor count (dose: 100.0 mg/kg/injection, schedule: Q01DX009 (ip), vehicle: suspension in saline) was 3 of 6. For the same molecule, the survivor count (dose: 200.0 mg/kg/injection, schedule: Q01DX009 (ip), vehicle: suspension in saline) was 0 of 6.
